The source of these data is PubChem BioAssay AID488840 (Broad Institute, 2010).

By UniProt entry, the sequences of proteins in these tests, tags left out. Where a name states a change or a piece, a line headed by the entry shows the natural chain unless it says otherwise.
UniProt O75164: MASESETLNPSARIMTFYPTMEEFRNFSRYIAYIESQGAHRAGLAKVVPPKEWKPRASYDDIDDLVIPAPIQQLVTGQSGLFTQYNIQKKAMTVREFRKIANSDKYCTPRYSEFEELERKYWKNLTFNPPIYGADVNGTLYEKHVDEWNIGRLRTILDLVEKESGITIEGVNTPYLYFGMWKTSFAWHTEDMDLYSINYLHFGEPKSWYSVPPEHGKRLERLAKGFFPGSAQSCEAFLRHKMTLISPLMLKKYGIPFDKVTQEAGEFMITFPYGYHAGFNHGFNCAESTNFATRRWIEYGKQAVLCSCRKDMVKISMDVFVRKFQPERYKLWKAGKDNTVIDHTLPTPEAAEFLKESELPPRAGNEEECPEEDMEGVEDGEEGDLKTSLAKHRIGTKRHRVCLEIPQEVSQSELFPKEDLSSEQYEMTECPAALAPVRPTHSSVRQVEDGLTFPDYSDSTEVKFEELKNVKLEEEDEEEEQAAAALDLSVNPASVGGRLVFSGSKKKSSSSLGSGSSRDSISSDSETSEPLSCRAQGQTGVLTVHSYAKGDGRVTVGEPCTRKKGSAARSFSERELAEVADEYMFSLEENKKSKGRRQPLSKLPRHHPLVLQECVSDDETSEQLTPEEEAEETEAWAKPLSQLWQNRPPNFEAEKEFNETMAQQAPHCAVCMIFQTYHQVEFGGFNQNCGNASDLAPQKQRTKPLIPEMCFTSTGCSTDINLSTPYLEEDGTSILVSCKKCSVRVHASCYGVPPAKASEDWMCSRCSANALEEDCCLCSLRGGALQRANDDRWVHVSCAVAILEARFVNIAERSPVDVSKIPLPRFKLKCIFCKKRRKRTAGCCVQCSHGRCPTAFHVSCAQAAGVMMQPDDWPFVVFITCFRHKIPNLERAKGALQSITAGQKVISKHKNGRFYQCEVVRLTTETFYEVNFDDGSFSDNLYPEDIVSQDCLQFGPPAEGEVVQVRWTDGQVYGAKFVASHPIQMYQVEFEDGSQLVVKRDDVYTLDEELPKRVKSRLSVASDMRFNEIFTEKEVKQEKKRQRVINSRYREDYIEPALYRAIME

Out of some 1,400 compounds screened, about 45 (3%) were called active.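 Rule for the calls: active = half-maximal dose of signal decrease from fit no higher than ten times the top valid tested dose; inconclusive = fit invalid, or curve flat with 30 to 70% inhibition; inactive = the rest.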 Some of the results follow. Results with a measured potency or affinity are listed apart.

For the assay, the target named is Lysine-specific demethylase 4A (Homo sapiens) (UniProt O75164). The assay can be described thus: inhibition of JMJD2A H3K9me3 demethylation – biochemical, DELFIA europium, cherry-picked samples, selectivity assay for GASC-1 inhibitor project, dose response (AID 488840).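 Note: europium signal reports the dimethyl H3K9 product detected by antibody so inhibitors lower it; 0% = median of neutral control wells and -100% = median of positive control wells.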 Conditions: GST-JMJD2A(1-420) H3K9me3 demethylation; at 6 µM (top of the series) unless noted.
`CSc1nc(N2CCN(C)CC2)c2c(c1C#N)CC(C)(C)OC2`: the activity change, negative = inhibition was inactive: -1.64%.
The result for `Cc1ccc(NC2=NCC(=O)N2Cc2ccc3c(c2)OCO3)c(C)c1` reads inactive: -1.15%.
Then `CC[C@@H]1CCCCc2ccccc2[C@@H](C(=O)C[C@@H](O)CC(C)=O)OC1=O`, with inactive: -1.15%.
Then `Fc1ccc(-c2csc(Nc3ccccn3)n2)cc1`, with inactive: -5.34%; and `O=c1c(O)cccc2cc(O)c(O)c(O)c12`, with inactive: -19.6%.
For `CCCC(CCC)C(=O)Nc1cccc(-c2cn3c(n2)SCC3)c1`, the activity change, negative = inhibition is inactive: 4.52%.
Then `COc1cccc(NC(=O)N2CCN(c3cccc(C)c3)C(C)C2)c1` (centres undefined), with inactive: 0.171%; and `CCCn1nnnc1SCC(=O)NCc1ccc(OC)cc1`, with inactive: -0.185%; and `C/C(=N\NC(=O)c1ccncc1)c1ccc(N(C)C)cc1`, with inactive: -1.56%.
On to `COC(=O)CSC1=C(C#N)C(c2ccsc2)CC(=O)N1` (centres undefined), for which the activity change, negative = inhibition was inactive: 0.445%.
The result for `COc1ccccc1N1CCN(c2nc3c(C)cccn3c(=O)c2C=O)CC1` reads inactive: -7.79% [at 0.195 µM].
Then `CNCCNC[C@H](Cc1cccc2ccccc12)NCCc1ccccc1`, with inactive: 3.68%; and `CSc1nc(N)nc2c1ncn2CC(=O)NCCNc1ccc([N+](=O)[O-])cn1`, with inactive: -0.915%.
Take `Cc1ccc(S(=O)(=O)Nc2ccc3c(c2)C(=O)N([C@H](C)CO)C[C@H](C)[C@@H](CN(C)Cc2ccccc2)O3)cc1`: the activity change, negative = inhibition is inactive: 4.3%.
The result for `COc1ccc(S(=O)(=O)Nc2ccc3c(c2)C(=O)N([C@H](C)CO)C[C@H](C)[C@@H](CN(C)S(=O)(=O)c2c(C)noc2C)O3)cc1` reads inactive: 6.71%.
In the case of `Cc1nn(C)c(N)c1C(O)(c1nccn1C)C(F)(F)F` (centres undefined), the activity change, negative = inhibition was inactive: 7.95%.
The result for `CC(C)CC1c2[nH]c3ccccc3c2CCN1C(=O)c1cnccn1` (centres undefined) reads inactive: -3.88%.
The result for `CNC(=O)C1=NCCCc2cc(OC)c(OC)cc21` reads inactive: 2.44%; that for `Cc1cc(C)nc(NC(N)=NC(C)c2ccccc2)n1` (centres undefined), inactive: 3.44%; that for `C[C@H]1CN([C@@H](C)CO)C(=O)Cc2cc(NS(=O)(=O)c3cccs3)ccc2O[C@H]1CN(C)S(=O)(=O)c1cn(C)cn1`, inactive: 0.25%.
On to `Cc1cccc(C(=O)N/N=C/C(C)Cc2ccc3c(c2)OCO3)c1` (centres undefined), for which the activity change, negative = inhibition is inactive: 4.82%.
Then `Cc1ccc(OC(=O)c2ccc3nc(C)sc3c2)cc1`, with inactive: 4.61%.
Then `CCCCNC(=O)OCCNC(=O)Oc1cccc(C)c1`, with inactive: 1.13%.
Consider `O=C(COC(=O)C1(c2ccccc2F)CCCC1)Nc1ncc(C(F)(F)F)cc1Cl`, for which the activity change, negative = inhibition is inactive: 4.26%.
Turning to `Cc1ccc(S(=O)(=O)N2[C@@H](c3ccc(Cl)c(Cl)c3)C(C(=O)O)=C[C@H]2C(C)(C)C)cc1`, the activity change, negative = inhibition is inactive: -4.2%.
Turning to `Cc1cc(OC(=O)N2CCOCC2)cc(C)c1Cl`, the activity change, negative = inhibition was inactive: 3.85%.
Regarding `Cc1ccc(NN=Nc2nc3c([nH]2)c(=O)n(C)c(=O)n3C)cc1`, the activity change, negative = inhibition was inactive: -12.8%.
In the case of `COc1ccc(C)cc1NC(=O)CN(C)S(=O)(=O)c1ccc2c(c1)CC(C)N2C(C)=O` (centres undefined), the activity change, negative = inhibition was inactive: -1.46%.
For `O=C(O)CCCNC(=O)c1cccc(C(=O)NCCCC(=O)O)n1`, the activity change, negative = inhibition is inactive: -1.04%.
For the compound `Cc1ccc(/C=N\NC(=O)c2cc([N+](=O)[O-])cc([N+](=O)[O-])c2)o1`, the activity change, negative = inhibition is inactive: -2.67%.
The result for `Cc1noc(C)c1NC(=O)Nc1cccc2c1O[C@H](CN(C)C(=O)Nc1ccc3c(c1)OCO3)[C@@H](C)CN([C@H](C)CO)C2=O` reads inactive: 3.31%; that for `O=[N+]([O-])c1ccccc1N/N=C\c1ccccc1Cl`, inactive: -1.83%.
Then `COc1ccc(C)cc1-n1nnnc1SC/C(O)=C(\C#N)c1nc2ccccc2[nH]1`, with inactive: -2.92%.
With `CCCS(=O)(=O)N1CCN(S(=O)(=O)c2ccccc2[N+](=O)[O-])CC1`, the activity change, negative = inhibition is inactive: -4%.
The result for `Cc1csc(SCC(=O)Nc2ccccc2C)n1` reads inactive: -3.18%.
In the case of `O=c1[nH]cnc2c1c(-c1ccccc1)cn2-c1ccccc1`, the activity change, negative = inhibition was inactive: -0.667%.
With `Cc1ccc(C)c(S(=O)(=O)Nc2cc(SCC(=O)O)c(O)c3ccccc23)c1`, the activity change, negative = inhibition was inactive: 2.64%.
Take `COc1ccc(N=Cc2cccc(C)c2O)cc1Cl`: the activity change, negative = inhibition was inactive: -3.87%.
The result for `Cn1nc(NC(=O)C(C)(C)C)c2c(F)cccc21` reads inactive: -2.53%; that for `O=C1CC(N2CCC(O)(c3ccc(Cl)cc3)CC2)C(=O)N1Cc1ccc(N2CCCC2=O)cc1` (centres undefined), inactive: 1.09%.
The result for `CN(C)CCOc1ccc(-c2c(-c3ccccc3)sc3ccccc23)cc1` reads inactive: 1.07%; that for `Cc1cc(C)c2cc(C#N)c(SCC(=O)Nc3ccc4c(c3)OCO4)nc2c1`, inactive: -11.4%; that for `O=C(NCc1nnc(SCC(=O)N2CCCCC2)o1)c1c(F)cccc1F`, inactive: 0.925%.
For the compound `Nc1cc(OC(=O)c2ccccc2Br)nn1S(=O)(=O)c1ccccc1`, the activity change, negative = inhibition was inactive: -1.6%.
The result for `CN(CCCNC(=O)CSc1cc(=O)n(C)c2ccc(Cl)cc12)Cc1ccccc1` reads inactive: 1.02%; that for `CCn1c(SCC(=O)NCc2ccco2)nnc1-c1cccs1`, inactive: 2.79%.
Then `Cc1ccc(NC(=O)COC(=O)c2ccco2)cc1S(=O)(=O)N1CCOCC1`, with inactive: -1.17%; and `C=CCNC(=S)NNC(=O)COc1cccc(Cl)c1`, with inactive: -1.84%.
Then `O=C(Nc1cccc(Cl)c1)NC1CCN(C2CCCCC2)C1` (centres undefined), with inactive: 0.254%; and `NC(=O)COc1cccc2cccnc12`, with inactive: 8.35%; and `CC(C)NC(=O)Nc1cccc2c1O[C@H](CN(C)C(=O)NC1CCCCC1)[C@H](C)CN([C@H](C)CO)C2=O`, with inactive: -2.85%.
Regarding `COc1ccc(CCNC(=O)c2ccc3c(c2)NC(=O)C(N2CCOCC2)S3)cc1OC` (centres undefined), the activity change, negative = inhibition was inactive: 10.6%.
For the compound `COc1cc(S(=O)(=O)N(Cc2cccs2)CC2CCCO2)ccc1-n1cnnn1` (centres undefined), the activity change, negative = inhibition was inactive: 0.517%.
Consider `CC(=O)C(Sc1nc(N2CCOCC2)nc(N2CCOCC2)n1)C(=O)Nc1ccccc1` (centres undefined), for which the activity change, negative = inhibition was inactive: -2.12%.
Then `COc1ccc(OCC(=O)N2CCC3(CC2)CC(=O)c2ccccc2O3)cc1`, with inactive: -2.29%; and `COc1ccc(CNC(=O)CSc2nnnn2Cc2ccccc2)cc1`, with inactive: 1.37%; and `Clc1cccc(Cl)c1Cn1c(-c2cccnc2Cl)nc2ccccc21`, with inactive: 3.42%.
Take `O=C(NC(=S)Nc1ccccn1)c1ccc([N+](=O)[O-])cc1`: the activity change, negative = inhibition was inactive: 2.6%.
The result for `Cc1nnc2c(N3CCN(C(=O)c4ccco4)CC3)nc3ccccc3n12` reads inactive: 5.77%; that for `O=C(O)c1ccc2cc(-c3ccccc3)[nH]c2c1`, inactive: 1.97%; that for `CCCN(CC(=O)Nc1ccccc1C)C(=O)CCl`, inactive: 2.09%.
As to `COc1ccc(-c2cc(C(F)(F)F)nc(SCCC(=O)NCc3ccco3)n2)cc1`, the activity change, negative = inhibition is inactive: -5.24%.
As to `NS(=O)(=O)c1ccc(CCNC(=O)CSc2ccccc2)cc1`, the activity change, negative = inhibition is inactive: -0.881%.
The result for `COc1cc(/C=N/N2C(=O)C3C4c5ccccc5C(c5ccccc54)C3C2=O)ccc1O` (centres undefined) reads inactive: -0.966%.
`O=C(O)COc1ccc(NC(=O)C(c2ccccc2)c2ccccc2)cc1`: the activity change, negative = inhibition was inactive: 3.86%.
Take `O=C(c1oc(=O)c2ccccc2c1-c1ccccc1)N1CCOCC1`: the activity change, negative = inhibition is inactive: 5.89%.
The result for `CCCCCNc1nc(-c2ccccc2)nc(-n2ccnc2)n1` reads inactive: 3.2%; that for `CCOC(=O)C1CCN(C(=O)CN(c2ccc(OC)c(OC)c2)S(=O)(=O)c2ccccc2)CC1`, inactive: 11.2%; that for `Cc1ccc(/C(N)=N/OC(=O)N2c3ccccc3Sc3ccccc32)cc1`, inactive: -1.55%.
The result for `C#CCOCCOCCOCCNc1nc(N2CCN(C(=O)[C@H](CCCN=C(N)N)n3cc(C(N)[C@H](C)CC)nn3)CC2)nc(N2CCN(C(=O)[C@H](CC(N)=O)n3cc(C(N)[C@@H](C)CC)nn3)CC2)n1` (some centres undefined) reads inactive: -3.16%; that for `O=C(OCC(=O)N1CCCC1)c1ccc(S(=O)(=O)Nc2ccccc2)cc1`, inactive: -7.08%.
The result for `CSc1ccc(-c2nc(CSCC(=O)N3CCOCC3)c(C)o2)cc1` reads inactive: 4.78%; that for `N/C(=N\OC(=O)COc1cc(Cl)c(Cl)cc1Cl)c1ccncc1`, inactive: 1.93%; that for `O=C1CCCC2=C1C(c1ccc(OS(=O)(=O)c3ccc(Cl)cc3)cc1)C1=C(CCCC1=O)O2`, inactive: -6.68%.
Consider `O=[N+]([O-])c1ccc(O)c(-c2nn[nH]n2)c1`, for which the activity change, negative = inhibition was inactive: -10.2%.
Consider `Cc1ccc(NC(=O)/C=C/c2cccs2)c([N+](=O)[O-])c1`, for which the activity change, negative = inhibition was inactive: 1.26%.
The result for `CC(Sc1nc2c(cc1C#N)CCCCC2)C(=O)O` (centres undefined) reads inactive: -1.12%.
The result for `CCC(C)(C)n1nnnc1CN1CCc2ccccc21` reads inactive: -14.8%; that for `Oc1ccccc1N1CCN(C(=S)NCc2ccccc2)CC1`, inactive: -0.917%.
On to `Cc1ccc(S(=O)(=O)N2CCOC2CNC(=O)C(=O)NCCc2ccc(S(N)(=O)=O)cc2)cc1` (centres undefined), for which the activity change, negative = inhibition was inactive: -5.22%.
In the case of `CCOC(=O)C1=C(c2ccccc2)NC(=O)NC1c1ccc(O)c(OCC)c1` (centres undefined), the activity change, negative = inhibition was inactive: 3%.
Then `CCCC(=O)Nc1ccc(C(=O)NCC2CCCO2)cc1` (centres undefined), with inactive: -6.1%.
For `COc1ccc(NC(=O)NCCCCc2ccccc2)c(OC)c1`, the activity change, negative = inhibition was inactive: 6.33%.
With `COc1ccc(S(=O)(=O)Nc2ccc3c(c2)C(=O)N([C@H](C)CO)C[C@H](C)[C@H](CN(C)Cc2ccc(C(=O)O)cc2)O3)cc1`, the activity change, negative = inhibition was inactive: 3.68%.
The result for `O=C(c1ccsc1)N1CCN(C(=O)c2cccs2)CC1` reads inactive: 4.15%; that for `C=CCc1c(C)nc(SC(C)C)[nH]c1=O`, inactive: -9.55%; that for `CCOCCCNC(=O)c1c[nH]c2ccc(C)cc2c1=O`, inactive: 0.456%.
Then `O=C(N/N=C/c1ccc([N+](=O)[O-])o1)c1cn(-c2ccccc2)nc1-c1ccc(F)cc1`, with inactive: 1.73%; and `CS(=O)(=O)c1ccccc1-c1csc(N2CCC(C(N)=O)CC2)n1`, with inactive: 6.68%.
